Source: doi:10.1101/2023.10.01.560355
Results are given in words; binding and its absence hold for the method and conditions named. Binding seen in cells or lysates may run through a third protein. Here binding means that the protein was enriched with, or labelled near, the bait; the list need not be complete. Sequences can lack the tags named with a protein.

Amino acid sequences for entries named in this document (tags omitted).
UniProt Q62093: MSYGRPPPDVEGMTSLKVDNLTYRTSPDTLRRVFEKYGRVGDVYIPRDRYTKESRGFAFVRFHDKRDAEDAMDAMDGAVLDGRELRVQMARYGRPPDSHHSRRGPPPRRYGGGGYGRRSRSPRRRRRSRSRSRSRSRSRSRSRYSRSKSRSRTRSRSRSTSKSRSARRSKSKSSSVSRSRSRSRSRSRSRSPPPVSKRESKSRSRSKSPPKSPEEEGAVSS

T1: FBXO24-HA (F-Box Protein 24 with a C-terminal HA epitope tag, from Fbxo24-HA-tagged transgenic mice) (mouse) (UniProt Q9D417)
T1 sequence: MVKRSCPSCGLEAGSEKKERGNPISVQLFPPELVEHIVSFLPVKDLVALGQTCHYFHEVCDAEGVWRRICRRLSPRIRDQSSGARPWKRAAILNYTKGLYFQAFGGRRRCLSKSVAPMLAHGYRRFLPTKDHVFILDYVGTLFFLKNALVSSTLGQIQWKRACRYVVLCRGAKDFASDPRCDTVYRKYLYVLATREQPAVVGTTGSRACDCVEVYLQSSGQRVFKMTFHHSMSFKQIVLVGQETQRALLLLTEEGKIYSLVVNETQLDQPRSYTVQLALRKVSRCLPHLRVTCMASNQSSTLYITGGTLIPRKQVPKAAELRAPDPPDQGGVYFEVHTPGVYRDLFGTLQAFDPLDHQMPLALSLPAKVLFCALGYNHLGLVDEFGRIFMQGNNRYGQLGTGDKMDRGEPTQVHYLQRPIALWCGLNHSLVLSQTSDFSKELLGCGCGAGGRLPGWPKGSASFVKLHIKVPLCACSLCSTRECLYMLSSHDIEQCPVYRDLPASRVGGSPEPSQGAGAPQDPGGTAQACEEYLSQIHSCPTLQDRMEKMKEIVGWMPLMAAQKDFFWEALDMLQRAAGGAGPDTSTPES


Biological target: T1, FBXO24-HA (F-Box Protein 24 with a C-terminal HA epitope tag, from Fbxo24-HA-tagged transgenic mice) (mouse)
Experiment: affinity purification with mass spectrometry

Row | binding | Molecule
1 | binds | SRSF2 (from UniProt Q62093 1-221)
2 | binds | SRSF3 (protein, UniProt P84104 1-164) MHRDSCPLDCKVYVGNLGNNGNKTELERAFGYYGPLRSVWVARNPPGFAFVEFEDPRDAADAVRELDGRTLCGCRVRVELSNGEKRSRNRGPPPSWGRRPRDDYRRRSPPPRRRSPRRRSFSRSRSRSLSRDRRRERSLSRERNHKPSRSFSRSRSRSRSNERK
